Read-outs that look alike come from different tables or passages of the source. Results are given in words; binding and its absence hold for the method and conditions named. Binding seen in cells or lysates may run through a third protein. These calls come from enrichment with a bait or labelling near it, and not all partners need be listed.

Protein sequences, listed by entry. Tags and fused reporters are not part of them.
UniProt Q9SQI2: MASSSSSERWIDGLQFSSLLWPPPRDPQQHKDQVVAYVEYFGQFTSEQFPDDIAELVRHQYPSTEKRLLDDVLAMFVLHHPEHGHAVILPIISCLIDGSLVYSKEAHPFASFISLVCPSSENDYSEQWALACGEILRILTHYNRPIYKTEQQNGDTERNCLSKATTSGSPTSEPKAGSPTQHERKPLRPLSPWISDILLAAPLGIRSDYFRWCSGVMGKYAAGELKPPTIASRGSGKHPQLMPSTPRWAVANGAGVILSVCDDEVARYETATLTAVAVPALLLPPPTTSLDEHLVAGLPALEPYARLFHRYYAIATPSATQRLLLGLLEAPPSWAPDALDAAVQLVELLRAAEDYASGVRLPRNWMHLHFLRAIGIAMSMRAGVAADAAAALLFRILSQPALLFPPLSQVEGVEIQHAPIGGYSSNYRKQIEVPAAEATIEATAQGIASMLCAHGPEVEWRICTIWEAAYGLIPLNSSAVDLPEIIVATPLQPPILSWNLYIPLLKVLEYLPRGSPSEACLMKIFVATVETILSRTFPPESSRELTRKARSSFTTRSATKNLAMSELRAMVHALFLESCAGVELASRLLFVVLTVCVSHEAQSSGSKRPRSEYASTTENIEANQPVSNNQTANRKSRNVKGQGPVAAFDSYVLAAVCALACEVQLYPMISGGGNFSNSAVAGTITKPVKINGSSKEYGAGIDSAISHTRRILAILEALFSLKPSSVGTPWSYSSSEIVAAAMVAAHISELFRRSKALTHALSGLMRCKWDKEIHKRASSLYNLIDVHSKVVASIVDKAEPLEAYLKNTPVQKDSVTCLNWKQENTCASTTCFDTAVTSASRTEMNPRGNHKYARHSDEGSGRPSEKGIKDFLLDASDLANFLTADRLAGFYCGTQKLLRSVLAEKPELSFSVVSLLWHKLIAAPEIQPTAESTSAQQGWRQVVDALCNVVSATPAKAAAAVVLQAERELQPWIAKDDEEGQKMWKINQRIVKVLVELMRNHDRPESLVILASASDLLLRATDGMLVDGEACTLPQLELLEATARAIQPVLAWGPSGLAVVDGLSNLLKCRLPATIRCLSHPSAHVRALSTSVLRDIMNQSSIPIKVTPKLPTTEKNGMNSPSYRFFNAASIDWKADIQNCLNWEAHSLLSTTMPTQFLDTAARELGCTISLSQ
UniProt Q94BT6: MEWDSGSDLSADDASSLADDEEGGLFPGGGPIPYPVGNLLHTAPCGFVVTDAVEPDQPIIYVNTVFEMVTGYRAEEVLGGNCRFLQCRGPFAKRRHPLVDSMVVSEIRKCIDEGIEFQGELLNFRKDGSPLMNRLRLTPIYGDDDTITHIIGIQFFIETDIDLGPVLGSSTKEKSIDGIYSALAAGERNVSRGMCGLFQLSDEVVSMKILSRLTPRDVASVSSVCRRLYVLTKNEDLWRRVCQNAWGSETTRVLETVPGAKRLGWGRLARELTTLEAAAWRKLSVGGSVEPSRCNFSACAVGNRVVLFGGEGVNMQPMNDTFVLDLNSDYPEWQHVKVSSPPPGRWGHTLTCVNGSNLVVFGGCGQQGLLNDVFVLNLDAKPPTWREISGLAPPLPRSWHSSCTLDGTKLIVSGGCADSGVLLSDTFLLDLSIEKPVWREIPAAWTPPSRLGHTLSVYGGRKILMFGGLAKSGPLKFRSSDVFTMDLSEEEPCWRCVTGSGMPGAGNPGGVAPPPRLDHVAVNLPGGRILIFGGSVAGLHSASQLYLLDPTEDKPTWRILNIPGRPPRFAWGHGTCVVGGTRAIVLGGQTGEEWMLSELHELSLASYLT
UniProt Q8W420: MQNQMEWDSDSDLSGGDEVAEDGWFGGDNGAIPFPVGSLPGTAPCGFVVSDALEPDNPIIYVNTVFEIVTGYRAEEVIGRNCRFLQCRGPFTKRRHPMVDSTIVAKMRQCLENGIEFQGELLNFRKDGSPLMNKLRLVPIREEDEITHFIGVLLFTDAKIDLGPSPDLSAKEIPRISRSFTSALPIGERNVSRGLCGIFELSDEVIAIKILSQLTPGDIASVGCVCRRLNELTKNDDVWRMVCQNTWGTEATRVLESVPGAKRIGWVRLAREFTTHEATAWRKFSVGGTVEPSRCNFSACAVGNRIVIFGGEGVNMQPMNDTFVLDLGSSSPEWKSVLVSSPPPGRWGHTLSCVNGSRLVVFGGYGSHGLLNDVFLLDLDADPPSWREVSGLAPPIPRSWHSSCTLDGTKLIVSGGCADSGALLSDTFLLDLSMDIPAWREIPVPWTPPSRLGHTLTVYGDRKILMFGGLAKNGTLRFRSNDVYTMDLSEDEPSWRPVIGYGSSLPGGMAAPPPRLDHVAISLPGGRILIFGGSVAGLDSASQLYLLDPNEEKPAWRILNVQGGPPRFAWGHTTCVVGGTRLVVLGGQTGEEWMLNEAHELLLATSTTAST
UniProt P28769: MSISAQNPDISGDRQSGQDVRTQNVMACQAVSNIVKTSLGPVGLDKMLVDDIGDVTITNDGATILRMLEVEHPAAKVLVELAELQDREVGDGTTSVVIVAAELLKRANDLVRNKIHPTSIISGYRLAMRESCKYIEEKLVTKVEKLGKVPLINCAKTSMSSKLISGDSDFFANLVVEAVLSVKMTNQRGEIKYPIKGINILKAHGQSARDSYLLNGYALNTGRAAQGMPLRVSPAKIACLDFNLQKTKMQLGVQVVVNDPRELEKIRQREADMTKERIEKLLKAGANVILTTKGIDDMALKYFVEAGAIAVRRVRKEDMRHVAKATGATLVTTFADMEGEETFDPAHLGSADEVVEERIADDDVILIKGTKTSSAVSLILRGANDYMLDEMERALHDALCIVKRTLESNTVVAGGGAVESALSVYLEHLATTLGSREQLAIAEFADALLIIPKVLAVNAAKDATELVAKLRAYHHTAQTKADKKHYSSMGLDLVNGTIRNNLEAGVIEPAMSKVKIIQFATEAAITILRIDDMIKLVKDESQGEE
UniProt Q9C9W9: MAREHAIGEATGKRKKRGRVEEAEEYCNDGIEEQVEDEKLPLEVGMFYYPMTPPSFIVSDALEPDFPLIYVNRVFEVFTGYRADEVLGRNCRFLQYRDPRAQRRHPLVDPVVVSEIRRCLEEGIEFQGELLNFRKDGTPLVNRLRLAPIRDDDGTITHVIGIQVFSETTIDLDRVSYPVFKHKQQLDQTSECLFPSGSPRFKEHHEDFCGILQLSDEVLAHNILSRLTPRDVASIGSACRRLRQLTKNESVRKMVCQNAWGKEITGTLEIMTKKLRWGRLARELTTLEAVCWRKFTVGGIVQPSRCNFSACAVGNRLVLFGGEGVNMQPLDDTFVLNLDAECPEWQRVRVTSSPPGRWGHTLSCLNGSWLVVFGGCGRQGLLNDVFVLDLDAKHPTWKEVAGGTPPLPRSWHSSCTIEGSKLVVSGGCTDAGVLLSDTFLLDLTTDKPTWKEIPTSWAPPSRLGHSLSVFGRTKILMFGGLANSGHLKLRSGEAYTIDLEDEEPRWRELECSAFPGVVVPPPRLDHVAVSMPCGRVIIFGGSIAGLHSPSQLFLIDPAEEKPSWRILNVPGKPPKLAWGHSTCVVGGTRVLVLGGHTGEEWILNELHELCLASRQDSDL

Holding throughout (assay): affinity purification with mass spectrometry
Test [1] concerns the target 3xFlag-, 6xHis-tagged GIGANTEA protein (GI:3F6H) (Arabidopsis thaliana) (UniProt Q9SQI2).
Test [2] shares this target. This is another data set of the same source.
For test [3] the target is unchanged. The source holds these as a separate data set.
The target is the same in test [4]. This is another data set of the same source.
The target is the same in test [5]. The source holds these as a separate data set.
Test [6] has the same target. This is another data set of the same source.

Take ZEITLUPE (from UniProt Q94BT6 1-609): the binding result in test [1], in test [2] and in test [3] was “binds” in each case.
With LKP2 (from UniProt Q8W420 1-611), the binding result in test [1], in test [2] and in test [3] was “binds” each time.
In the case of “TCP-1/cpn60 chaperonin family protein At3g20050 (from UniProt P28769 1-545)”, the binding result in test [1] and in test [4] was “binds” each time.
For the molecule “FLAVIN-BINDING, KELCH REPEAT, F-BOX 1 (from UniProt Q9C9W9 1-619)”, the binding entry in test [1], in test [2] and in test [3] was “binds” throughout.

B1: methionine cycle protein At3g03780 (enzyme, UniProt Q9SRV5 1-765)
chain: MASHIVGYPRMGPKRELKFALESFWDGKSSADDLQKVSADLRSDIWKQMSAAGIKYIPSNTFSHYDQVLDTTAMLGAVPSRYGFTSGEIGLDVYFSMARGNASVPAMEMTKWFDTNYHYIVPELGPEVKFSYASHKAVNEYKEAKALGVETVPVLVGPVSYLLLSKLAKGVDKSFDLLSLLPKILPVYKEVIAELKAAGASWIQLDEPLFVMDLEGHKLQAFSGAYAELESTLSGLNVLVETYFADIPAEAYKTLTSLKGVTAFGFDLVRGTKTIDLIKSGFPQGKYLFAGVVDGRNIWANDLAASLITLQSLEGVVGKDKLVVSTSCSLLHTAVDLINETKLDAEIKSWLAFAAQKVVEVDALAKALAGQTNESFFTANADALSSRRSSPRVTNESVQKAAAALKGSDHRRTTEVSARLDAQQKKLNLPILPTTTIGSFPQTVELRRVRREYKAKKISEEDYVKAIKEEIKKVVDIQEDLDIDVLVHGEPERNDMVEYFGEQLSGFAFTANGWVQSYGSRCVKPPVIYGDVSRPKPMTVFWSSTAQSMTKRPMKGMLTGPVTILNWSFVRNDQPRHETCYQIALAIKDEVEDLEKGGIGVIQIDEAALREGLPLRKAEHSFYLDWAVHSFRITNCGVQDSTQIHTHMCYSNFNDIIHSIIDMDADVITIENSRSDEKLLSVFREGVKYGAGIGPGVYDIHSPRIPSTDEIADRINKMLAVLEQNILWVNPDCGLKTRKYTEVKPALKAMVDAAKLIRSQLGSAK
Consider B1, for which, in test [5], the binding entry is listed as “binds”.

B2: GTP-binding translation factor At1g56070 (protein, UniProt Q9ASR1 1-843)
chain: MVKFTADELRRIMDYKHNIRNMSVIAHVDHGKSTLTDSLVAAAGIIAQEVAGDVRMTDTRADEAERGITIKSTGISLYYEMTDESLKSFTGARDGNEYLINLIDSPGHVDFSSEVTAALRITDGALVVVDCIEGVCVQTETVLRQALGERIRPVLTVNKMDRCFLELQVDGEEAYQTFSRVIENANVIMATYEDPLLGDVQVYPEKGTVAFSAGLHGWAFTLTNFAKMYASKFGVVESKMMERLWGENFFDPATRKWSGKNTGSPTCKRGFVQFCYEPIKQIIATCMNDQKDKLWPMLAKLGVSMKNDEKELMGKPLMKRVMQTWLPASTALLEMMIFHLPSPHTAQRYRVENLYEGPLDDQYANAIRNCDPNGPLMLYVSKMIPASDKGRFFAFGRVFAGKVSTGMKVRIMGPNYIPGEKKDLYTKSVQRTVIWMGKRQETVEDVPCGNTVAMVGLDQFITKNATLTNEKEVDAHPIRAMKFSVSPVVRVAVQCKVASDLPKLVEGLKRLAKSDPMVVCTMEESGEHIVAGAGELHLEICLKDLQDDFMGGAEIIKSDPVVSFRETVCDRSTRTVMSKSPNKHNRLYMEARPMEEGLAEAIDDGRIGPRDDPKIRSKILAEEFGWDKDLAKKIWAFGPETTGPNMVVDMCKGVQYLNEIKDSVVAGFQWASKEGPLAEENMRGICFEVCDVVLHSDAIHRGGGQVIPTARRVIYASQITAKPRLLEPVYMVEIQAPEGALGGIYSVLNQKRGHVFEEMQRPGTPLYNIKAYLPVVESFGFSSQLRAATSGQAFPQCVFDHWEMMSSDPLEPGTQASVLVADIRKRKGLKEAMTPLSEFEDKL
Regarding B2, the binding entry in test [6] and in test [5] was “binds” each time.

B3: TREHALOSE PHOSPHATE SYNTHASE 8 (protein, UniProt Q0WUI9 1-856)
chain: MVSRSCANFLDLSSWDLLDFPQTPRTLPRVMTVPGIITDVDGDTTSEVTSTSGGSRERKIIVANMLPLQSKRDAETGKWCFNWDEDSLQLQLRDGFSSETEFLYVGSLNVDIETNEQEEVSQKLLEEFNCVATFLSQELQEMFYLGFCKHQLWPLFHYMLPMFPDHGDRFDRRLWQAYVSANKIFSDRVMEVINPEDDYVWIQDYHLMVLPTFLRKRFNRIKLGFFLHSPFPSSEIYRTLPVRDEILRGLLNCDLIGFHTFDYARHFLSCCSRMLGLDYESKRGHIGLDYFGRTVYIKILPVGVHMGRLESVLSLDSTAAKTKEIQEQFKGKKLVLGIDDMDIFKGISLKLIAMEHLFETYWHLKGKVVLVQIVNPARSSGKDVEEAKRETYETARRINERYGTSDYKPIVLIDRLVPRSEKTAYYAAADCCLVNAVRDGMNLVPYKYIVCRQGTRSNKAVVDSSPRTSTLVVSEFIGCSPSLSGAIRVNPWDVDAVAEAVNSALKMSETEKQLRHEKHYHYISTHDVGYWAKSFMQDLERACRDHYSKRCWGIGFGLGFRVLSLSPSFRKLSVEHIVPVYRKTQRRAIFLDYDGTLVPESSIVQDPSNEVVSVLKALCEDPNNTVFIVSGRGRESLSNWLSPCENLGIAAEHGYFIRWKSKDEWETCYSPTDTEWRSMVEPVMRSYMEATDGTSIEFKESALVWHHQDADPDFGSCQAKEMLDHLESVLANEPVVVKRGQHIVEVKPQGVSKGLAAEKVIREMVERGEPPEMVMCIGDDRSDEDMFESILSTVTNPELLVQPEVFACTVGRKPSKAKYFLDDEADVLKLLRGLGDSSSSLKPSSSHTQVAFESIV
Regarding B3, the binding entry in test [5] is listed as “binds”.

B4: phosphofructokinase family protein At1g20950 (enzyme, UniProt Q9SYP2 1-614)
chain: MDSDFGIPRELSPLQQLRSQYKPELPPCLQGTTVRVELGDGTTVAEAADSHTMARAFPHTLGQPLAHFLRETAQVPDAHIITELPSVRVGIVFCGRQAPGGHNVIWGLFEALKVHNAKSTLLGFLGGSEGLFAQKTLEITDDILQTYKNQGGYDLLGRTKDQIKTTEQVNAALKACTDLKLDGLVIIGGVISNTDAAHLAEFFAAAKCSTKVVGVPVTTNGDLKNQFVEANVGFDTICKVNSQLISNACTDALSAEKYYYFIRLMGRKHSHVALECTLQSHPNMVILGEEVAASKLTIFDIAKQICDAVQARAVEDKNHGVILIPEGLIVSIPEVYALLKEIHGLLRQGVSADKISTQLSPWSSALFEFLPPFIKKQLLLHPESDDSAQLSQIETEKLLAYLVETEMNKRLKEGTYKGKKFNAICHFFGYQARGSLPSKFDCDYAYVLGHICYHILAAGLNGYMATVTNLKSPVNKWKCGATPITAMMTVKHWSQDASYTLTSIGRPAIHPAMVDLKGKAYDLLRQNAQKFLMEDLYRNPGPLQYDGPGADAKAVSLCVEDQDYMGRIKKLQEYLDQVRTIVKPGCSQDVLKAALSVMASVTDVLTTISSNGGQ
Regarding B4, the binding result in test [5] is recorded as “binds”.

These data come from paper doi:10.1101/162271.
